From paper PMC7819943, “Rice protein-binding microarrays: a tool to detect cis-acting elements near promoter regions in rice”
The other results are listed elsewhere or left out.

The chains behind the UniProt entries cited, without tags or fusion partners.
UniProt Q0JBA9, entry or part of it: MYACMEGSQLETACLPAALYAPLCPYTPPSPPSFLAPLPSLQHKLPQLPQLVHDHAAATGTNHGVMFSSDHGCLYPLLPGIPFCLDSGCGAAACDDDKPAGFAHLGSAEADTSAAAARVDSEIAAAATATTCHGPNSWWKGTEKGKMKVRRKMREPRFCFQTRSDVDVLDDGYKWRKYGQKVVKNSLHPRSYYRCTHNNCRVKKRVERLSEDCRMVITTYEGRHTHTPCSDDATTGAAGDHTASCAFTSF

molecular target: OsWRKY34 (Oryza sativa, UniProt Q0JBA9 1-250); experiment: protein-binding microarray (RPBM); PBS, 2% BSA, 51.3 ng/ul salmon testes DNA, 50 uM zinc acetate, 200 nM TF, 25 C, 1 h; high values mean tight binding; conditions: protein: recombinant; tags: N-terminal polyhistidine and DsRed monomer fusion (pET32a); label: CyDye5-dUTP incorporated in the synthesized complementary strand; 3' TTTTT single-stranded linker to array surface; dsDNA, one strand shown
Outline: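 Binding signal here means per-feature fluorescence intensity in arbitrary units. The values were read on an Axon 4000B scanner after a custom Agilent array, double-stranded by primer extension with Cy5-dUTP, was incubated with 200 nM protein at 25 °C for 1 h in PBS with 2% BSA, salmon testes DNA and 50 µM zinc acetate, then washed. The proteins were transcription factors with an N-terminal polyhistidine tag and DsRed, expressed in E. coli BL21-CodonPlus and purified on Ni–NTA.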

Sequence | binding signal
TAGCCTCTATACATTTACATCCAACATAATATCAAACTTTCGGAGTCACCTAGTGCAG | 8610 fluorescence intensity (a.u.)
CAATTCCTACGTTTTTCCTGCAGTTCAATCAAACGGTCATCGGAGTCACCTAGTGCAG | 8650 fluorescence intensity (a.u.)
TCTTTGTCTCTGTCTCTCTCTCCCGAGCTATAGCTACAGCCGGAGTCACCTAGTGCAG | 12300 fluorescence intensity (a.u.)
GCACTACCCTACTTTCGTCGGCCTCTCGACTCCTGGAACCCGGAGTCACCTAGTGCAG | 10100 fluorescence intensity (a.u.)
GGTGGCCCTACTTAATTACGCATGCAACGGAGGTTTAACGCGGAGTCACCTAGTGCAG | 8790 fluorescence intensity (a.u.)
AATCCTTTATCCAGTAATCTTTTCTTTTTGATGATAGTTACGGAGTCACCTAGTGCAG | 8610 fluorescence intensity (a.u.)
GGCGATGGCGGGGCATGGATGTGGGCATGTGGCGCGACTACGGAGTCACCTAGTGCAG | 8780 fluorescence intensity (a.u.)
CTTAGCCGCTTATACCTAATCGAACGGTGAGCCTATCCTCCGGAGTCACCTAGTGCAG | 8520 fluorescence intensity (a.u.)
GTATGCTCTCTGAATGACATGTATTATTTTTCTCTCGAAACGGAGTCACCTAGTGCAG | 8110 fluorescence intensity (a.u.)
ATTTTTTGTGTTCCAACCTTTCTTGTCTTGTTATTTTACCCGGAGTCACCTAGTGCAG | 13400 fluorescence intensity (a.u.)
CACCCCTACTTGTATTTCGAAATTAACATACATCATTTTTCGGAGTCACCTAGTGCAG | 9890 fluorescence intensity (a.u.)
TGTTTGCTGAGGAAGTTTTCAACTAGCACTTCGCTATCAACGGAGTCACCTAGTGCAG | 8840 fluorescence intensity (a.u.)
GCAGGATCTCCACTCCGGTCCCACTTACTGACACCTCTCTCGGAGTCACCTAGTGCAG | 9070 fluorescence intensity (a.u.)
CCCTTATCTCTTCTCTGCTTCTCGTTCTTTTCTCTCTCTCCGGAGTCACCTAGTGCAG | 12800 fluorescence intensity (a.u.)
TGTGAGACCTACATGTCATACTCCTCTTGCTCTATCGATCCGGAGTCACCTAGTGCAG | 10100 fluorescence intensity (a.u.)
ATTTGTTGTTTCATTTGTATTGTTTTGTGTTGGTTTATGTCGGAGTCACCTAGTGCAG | 8940 fluorescence intensity (a.u.)
AGTTAGATCCGTGTCACATTTCATGTTTTGTCCTCATTCTCGGAGTCACCTAGTGCAG | 10600 fluorescence intensity (a.u.)
GCTTTGATTCAAATGGGCCCTGAAATTCCTATGAATTTCTCGGAGTCACCTAGTGCAG | 8120 fluorescence intensity (a.u.)
ATATACTTTCATGTACACATATAGTTTTACATATTTCATACGGAGTCACCTAGTGCAG | 10500 fluorescence intensity (a.u.)
AATACTTACAACGTGTCCGATGTTCCCAGTAATCCTTTCCCGGAGTCACCTAGTGCAG | 8150 fluorescence intensity (a.u.)
TGTGTTTGTGGATTAGGTAGGGAGGGATAAAGAAGTACTACGGAGTCACCTAGTGCAG | 11200 fluorescence intensity (a.u.)

3 records drawn at random from the list so far:
Sequence | binding signal
ATTTTTTGTGTTCCAACCTTTCTTGTCTTGTTATTTTACCCGGAGTCACCTAGTGCAG | 13400 fluorescence intensity (a.u.)
ATTTGTTGTTTCATTTGTATTGTTTTGTGTTGGTTTATGTCGGAGTCACCTAGTGCAG | 8940 fluorescence intensity (a.u.)
GGTGGCCCTACTTAATTACGCATGCAACGGAGGTTTAACGCGGAGTCACCTAGTGCAG | 8790 fluorescence intensity (a.u.)

(continued)

Sequence | binding signal
AAATAAATGTTCTCTTTGACCCTTTTAAGACATTGTTCTCCGGAGTCACCTAGTGCAG | 9070 fluorescence intensity (a.u.)
TGTGCCCATGGATTTGAACTTTGAACATAGGTTATGGATTCGGAGTCACCTAGTGCAG | 8800 fluorescence intensity (a.u.)
AACTTGTCCGTCCCTCACGTCACTTCTGTAAATGTTTATACGGAGTCACCTAGTGCAG | 14700 fluorescence intensity (a.u.)
CACCACACCACACCATACCACACCACGGCCATCTCGTCAGCGGAGTCACCTAGTGCAG | 10400 fluorescence intensity (a.u.)
ACACAAGTTACACAATATAAAGCCTTCGTTACTGCACTTTCGGAGTCACCTAGTGCAG | 8140 fluorescence intensity (a.u.)
GTCACTCACTTTCCTAATGGATTTGTAATATGTTCTCTCACGGAGTCACCTAGTGCAG | 9180 fluorescence intensity (a.u.)
CTGAAACTCTGATGAGTTTTTCAATGCTTCCATGTCTATTCGGAGTCACCTAGTGCAG | 8660 fluorescence intensity (a.u.)
TTGGGTACGATCCGTGTGCTTTGATATTTTGGCGTGCTTGCGGAGTCACCTAGTGCAG | 8700 fluorescence intensity (a.u.)
GGGTTGATGTGTGGTGAAGGGTAGGTAATTTGTAGGAGTACGGAGTCACCTAGTGCAG | 10800 fluorescence intensity (a.u.)
TTTCAGAGCTATTTGGCCTTTAATACACTTTCCTATTAAGCGGAGTCACCTAGTGCAG | 8710 fluorescence intensity (a.u.)
ATAGGGATGGGGCTACCGGATTTTTTTTCCGGAAGAGATCCGGAGTCACCTAGTGCAG | 9140 fluorescence intensity (a.u.)
CACCGCGGACGCTGTCGCCGTCGTCTTCGTCGCCGTCCCTCGGAGTCACCTAGTGCAG | 9480 fluorescence intensity (a.u.)
ATTGGCATGGAGTCGTCTCTTGTGGTTGCATTTTATGGATCGGAGTCACCTAGTGCAG | 9440 fluorescence intensity (a.u.)
CTCTTTCTTTCTTTCTTTCTTTCTTTTTTTTTTATTAAGGCGGAGTCACCTAGTGCAG | 10700 fluorescence intensity (a.u.)
TCATCCATGGCTGCTTCTGCCGCTGCTATCCGATAATCCGCGGAGTCACCTAGTGCAG | 10700 fluorescence intensity (a.u.)
CCATCCTTCGTCGGCATTCCAAAACATCTATTTCTCCTGCCGGAGTCACCTAGTGCAG | 9990 fluorescence intensity (a.u.)
TTACCAGTGACTAATTTTTTTCCTTCTTTTTTACTTTTCGCGGAGTCACCTAGTGCAG | 10700 fluorescence intensity (a.u.)
ATGATAGCAATTCTCTACCCTTTTCAACTGGTTCTTGTCGCGGAGTCACCTAGTGCAG | 8570 fluorescence intensity (a.u.)
ACATTGCCCGTGCCCGCTGTGTTATGTACTAGCTGTACAGCGGAGTCACCTAGTGCAG | 8080 fluorescence intensity (a.u.)
TCTTTGTTATAATTATGGGGTTGGTTTTATTCGTTTTCGACGGAGTCACCTAGTGCAG | 21900 fluorescence intensity (a.u.)
GTATACACCTCTAATTGCGATTTTATATTTTAATTAATTACGGAGTCACCTAGTGCAG | 8310 fluorescence intensity (a.u.)

Sequence | binding signal
GTTTGGGTTGAAGTTTTACAGCCAAAGTCCATCGTCTCGCCGGAGTCACCTAGTGCAG | 8670 fluorescence intensity (a.u.)
TACATGTTTCCCTGATTTTCTTTCCTCGAAACATAGATTTCGGAGTCACCTAGTGCAG | 8990 fluorescence intensity (a.u.)
GACTCAACCGCTCATGTTGACCGGCCATTTTTTTTAAAGACGGAGTCACCTAGTGCAG | 8930 fluorescence intensity (a.u.)
ACAGTTTGTTAGCCAGCCATTTGATTGTGACTTGCCATATCGGAGTCACCTAGTGCAG | 8520 fluorescence intensity (a.u.)
GTTGGAGGGGTGTTTTTTTGGTCGGAGAAAGCGCGACGACCGGAGTCACCTAGTGCAG | 8810 fluorescence intensity (a.u.)
CAATTGATGGCTACGTCGCTTTTGTCAACTCCTTATTTTCCGGAGTCACCTAGTGCAG | 11100 fluorescence intensity (a.u.)
GTCCACATGTTGTATTTTTTATATTATCTTGTTATTAGTACGGAGTCACCTAGTGCAG | 9110 fluorescence intensity (a.u.)
GTACCCTTGAATTTTACTCAATCTCCTGGATACCCCTGAACGGAGTCACCTAGTGCAG | 8140 fluorescence intensity (a.u.)
CAAATCACGCCTCCATCGCCATCCGCTCTCATCGCCGATCCGGAGTCACCTAGTGCAG | 10800 fluorescence intensity (a.u.)
TGTAGTTACCTAATTTGGTCTTGTAAATATTATTATTATACGGAGTCACCTAGTGCAG | 8060 fluorescence intensity (a.u.)
TGTGTGCGTGTGTTGTGACTTATGATGTGTTTCTTAAGAACGGAGTCACCTAGTGCAG | 10100 fluorescence intensity (a.u.)
TTGTACTACTATTTCTTCATGTTACATAATTCTCCTTGTTCGGAGTCACCTAGTGCAG | 8540 fluorescence intensity (a.u.)
TTACTTGTGTGTTTGTGTGTGTTATATATATATATATATACGGAGTCACCTAGTGCAG | 9120 fluorescence intensity (a.u.)
CTTCTACTGCTTTACGTGTCACTGCCTATAATAGTACTACCGGAGTCACCTAGTGCAG | 11900 fluorescence intensity (a.u.)
CAGCTGTTCGAACTCGGTGCTTGATAGTTTTTTTTTTCTTCGGAGTCACCTAGTGCAG | 8790 fluorescence intensity (a.u.)
AACGTTTGACCACTCGTCTTATTCAATTTTTTTTTGTAAACGGAGTCACCTAGTGCAG | 9730 fluorescence intensity (a.u.)
GGGTTTTTTATATACTGGTAAATATTCGCTACCGTATTCGCGGAGTCACCTAGTGCAG | 9130 fluorescence intensity (a.u.)
GTTCCTTTGGTGTCACATTTGCAGACAATGCTGGAGTCATCGGAGTCACCTAGTGCAG | 8380 fluorescence intensity (a.u.)
GATATACAGCATCAATTCAGCCCAACCATAACACAACTCCCGGAGTCACCTAGTGCAG | 10300 fluorescence intensity (a.u.)
CCGTTGGTGTCATAACGTGTCTATTGGTGTCTGTATGCTACGGAGTCACCTAGTGCAG | 8380 fluorescence intensity (a.u.)
GTGTTAGTTTCTCTTTGTGCTCTGTGATACATTCAAGATGCGGAGTCACCTAGTGCAG | 9490 fluorescence intensity (a.u.)

Sequence | binding signal
GAGTTTGGTTCTTCCTATTCAGATACATTGTTTCCTGCATCGGAGTCACCTAGTGCAG | 8260 fluorescence intensity (a.u.)
GGGGTTACATTCTTCCTTGAAATTGCATTCTAAATACTATCGGAGTCACCTAGTGCAG | 11800 fluorescence intensity (a.u.)
GGCAACCCCAACCTCGCGCGGCCCACCGCGTTTCATTTCCCGGAGTCACCTAGTGCAG | 8440 fluorescence intensity (a.u.)
GATATTTGGGTTGGTTTACTTCAATTACAGTCAAATGGATCGGAGTCACCTAGTGCAG | 8670 fluorescence intensity (a.u.)
GCAACTGTGTTTTCAATTCTGCAAATGCTATTCTCTGTTACGGAGTCACCTAGTGCAG | 11800 fluorescence intensity (a.u.)
TCACTGACGCCGTCCTCGTTGTAGCCGATCCACGCACCAGCGGAGTCACCTAGTGCAG | 8840 fluorescence intensity (a.u.)
ATTGATTGACCGAGCGCACTACTCTTTATCTTTTCGATTGCGGAGTCACCTAGTGCAG | 9920 fluorescence intensity (a.u.)
TCCATCCTCGTCTCCACCCACCCACTCTTTATTCCCACCTCGGAGTCACCTAGTGCAG | 9240 fluorescence intensity (a.u.)
CACCATACCACATTCACACCCATCACTGCGGAAACCGAACCGGAGTCACCTAGTGCAG | 8480 fluorescence intensity (a.u.)
TTTGCTCTACCCGTGCCCGACCCGACCCATTGCCATACCTCGGAGTCACCTAGTGCAG | 9130 fluorescence intensity (a.u.)
TCTCTCCACCGCATCTCTCCCTCAACCTCTCTCTTAGATCCGGAGTCACCTAGTGCAG | 10300 fluorescence intensity (a.u.)
TTAAAAAAGTCAACGGCGAACATTTAGAGTAGGAGGGAGTCGGAGTCACCTAGTGCAG | 10100 fluorescence intensity (a.u.)
CTCGCTGATGTCATTTCTTGCTTGACCATTTCTGACAGATCGGAGTCACCTAGTGCAG | 8950 fluorescence intensity (a.u.)
TTCTTTATCCCATCTCGCGCGCTTTCCTTTCCTTTCCTTCCGGAGTCACCTAGTGCAG | 11600 fluorescence intensity (a.u.)
ACTGACATGTGGGTCTCATGAGTTTTATTATTTTTTCTAGCGGAGTCACCTAGTGCAG | 8690 fluorescence intensity (a.u.)
GCTTGCTCCAGGTGACCCAACTTTTCCATTTCCATGCATTCGGAGTCACCTAGTGCAG | 11300 fluorescence intensity (a.u.)
GCACCAATTAATATTGGAGCTATCGTTCTTCTTCCCATCACGGAGTCACCTAGTGCAG | 8340 fluorescence intensity (a.u.)
ATATGTTACAGTAAATTTTGCCCGTGCTCTTTGTAGATTTCGGAGTCACCTAGTGCAG | 8900 fluorescence intensity (a.u.)
CATACTTCATGCGATCGCGAGCTCGCGTAATCACGTGTCCCGGAGTCACCTAGTGCAG | 8100 fluorescence intensity (a.u.)
TCGGTGTGTTTGCTGGTCTGTAATGTACTAGGCTACCTAACGGAGTCACCTAGTGCAG | 8500 fluorescence intensity (a.u.)
AGGGAATATTTTTTTTTAGCGTTTGACCACTCGTCTTATACGGAGTCACCTAGTGCAG | 11100 fluorescence intensity (a.u.)
